Part of at least one peptide drawing is inferred or uncertain, most often the ends. Residues, ends and D or L forms follow the SMILES beside them.
What was measured:
[1] = tested on: PP1c; assay: Pull down assay of biotinylated peptides with cell lysate, Western blot with PP1c antibody; assay type: binding, murine; details: cellular extracts from IL-2-stimulated cells
[2] = tested on: TS1αβ cells; assay: Cell death assay (annexin V / PI flow cytometry); assay type: cell-based, murine; details: peptides at 150 μM; for induction of apoptosis / cell death (in words): TS1αβ cells
Experimental: An Annexin-V-FITC conjugated kit (Roche) was used for the assessment of outer leaflet exposure of phosphatidylserine (PS) in the plasma membrane of apoptotic cells. Staining was performed according to the manufacturer's instructions. A total of […] cells were analyzed by flow cytometry in a FACSCalibur cytofluometer (BD Biosciences). Necrotic cells were excluded by propidium iodide (PI) staining, and single annexin V positive cells were considered apoptotic. For apoptotic analysis the different peptides were used at 150 μM.
Using flow cytometry detection of annexin V and PI, the inventors analyzed the capacity of DPT-C9 to induce apoptosis in TS1αβ cells cultured in presence of IL-2. In contrast to non penetrating C9 peptide, DPT-C9 induced a 6-fold increase of apoptosis.

[3] = target: T1, caspase-9 (Mus musculus, UniProt Q8C3Q9); assay: Pull down assay of biotinylated peptides with cell lysate, detection of caspase-9; assay type: binding, murine; details: cellular extracts from IL-2-stimulated cells
T1 construct: exponentially growing TS1αβ cells were first washed twice with PBS and then lysed; endogenous in cells; host or cells: TS1αβ murine T cell line, IL-2-stimulated, NP-40 lysate
T1 sequence (Q8C3Q9 1-454): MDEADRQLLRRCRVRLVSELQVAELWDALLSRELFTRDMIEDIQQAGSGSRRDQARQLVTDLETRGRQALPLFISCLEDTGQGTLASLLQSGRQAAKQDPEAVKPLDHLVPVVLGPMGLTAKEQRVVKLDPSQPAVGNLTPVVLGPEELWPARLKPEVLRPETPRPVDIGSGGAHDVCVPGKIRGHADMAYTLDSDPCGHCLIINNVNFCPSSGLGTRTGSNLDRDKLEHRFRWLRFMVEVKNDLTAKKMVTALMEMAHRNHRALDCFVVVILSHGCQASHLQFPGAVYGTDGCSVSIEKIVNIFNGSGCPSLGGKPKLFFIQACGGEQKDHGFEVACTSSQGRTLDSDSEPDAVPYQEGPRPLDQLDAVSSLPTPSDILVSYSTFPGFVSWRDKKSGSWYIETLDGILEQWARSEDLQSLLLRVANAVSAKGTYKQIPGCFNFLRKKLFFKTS

| SMILES | presence of PP1c associated to peptide [1] | increase of apoptosis ([2]; TS1αβ cells cultured in presence of IL-2) [fold] | induction of apoptosis / cell death (in words) [2] | presence of caspase-9 associated to peptide [3] |
| --- | --- | --- | --- | --- |
| CC[C@H](C)[C@H](NC(=O)CNC(=O)[C@H](CC(=O)O)NC(=O)[C@H](CC(C)C)NC(=O)[C@@H](NC(=O)[C@H](CCC(=O)O)NC(=O)[C@@H](NC(=O)[C@H](Cc1ccc(O)cc1)NC(=O)[C@@H](NC(=O)[C@H](CCCCN)NC(=O)[C@@H](NC(=O)[C@H](CCC(=O)O)NC(=O)[C@H](CCCNC(=N)N)NC(=O)[C@H](CCCCN)NC(=O)[C@@H](NC(=O)[C@H](CCCCN)NC(=O)[C@H](CCCCN)NC(=O)[C@H](CCCCN)NC(=O)[C@H](CCCCN)NC(=O)[C@@H](N)C(C)C)[C@@H](C)CC)[C@@H](C)CC)[C@@H](C)CC)[C@@H](C)CC)[C@@H](C)O)C(=O)N[C@@H](CC(C)C)C(=O)N[C@@H](CCC(=O)O)C(=O)N[C@@H](CCC(N)=O)C(=O)N[C@@H](Cc1c[nH]c2ccccc12)C(=O)N[C@@H](C)C(=O)N[C@@H](CCCNC(=N)N)C(=O)N[C@@H](CO)C(=O)N[C@@H](CCC(=O)O)C(=O)N[C@@H](CC(=O)O)C(=O)N[C@@H](CC(C)C)C(=O)O [DPT-C9, VKKKKIKREIKI-YIETLDGILEQWARSEDL] (H-VKKKKIKREIKIYIETLDGILEQWARSEDL-OH; N-terminus and C-terminus assumed) | did not detect | 6 | induces cell death | did not detect |
| CC[C@H](C)[C@H](NC(=O)[C@H](CC(C)C)NC(=O)[C@H](CCC(=O)O)NC(=O)[C@H](CCC(N)=O)NC(=O)[C@H](Cc1c[nH]c2ccccc12)NC(=O)[C@H](C)NC(=O)[C@H](CCCNC(=N)N)NC(=O)[C@H](CO)NC(=O)[C@H](CCC(=O)O)NC(=O)[C@H](CC(=O)O)NC(=O)[C@H](CC(C)C)NC(=O)[C@@H](NC(=O)[C@H](CCCCN)NC(=O)[C@@H](NC(=O)[C@H](CCC(=O)O)NC(=O)[C@H](CCCNC(=N)N)NC(=O)[C@H](CCCCN)NC(=O)[C@@H](NC(=O)[C@H](CCCCN)NC(=O)[C@H](CCCCN)NC(=O)[C@H](CCCCN)NC(=O)[C@H](CCCCN)NC(=O)[C@@H](N)C(C)C)[C@@H](C)CC)[C@@H](C)CC)[C@@H](C)CC)C(=O)NCC(=O)N[C@@H](CC(=O)O)C(=O)N[C@@H](CC(C)C)C(=O)N[C@H](C(=O)N[C@@H](CCC(=O)O)C(=O)N[C@H](C(=O)N[C@@H](Cc1ccc(O)cc1)C(=O)O)[C@@H](C)CC)[C@@H](C)O [DPT-C9r, VKKKKIKREIKI-LDESRAWQELIGDLTEIY] (H-VKKKKIKREIKILDESRAWQELIGDLTEIY-OH; N-terminus and C-terminus assumed) | – | – | behaves as negative control | – |
